{"source": "paper PMC6345845", "target": "T1, pseudo-wt PI4KB Y159A labeled with Atto488 (human) (UniProt Q9UBF8)", "T1 sequence (chain, Atto488 (maleimide labelling))": "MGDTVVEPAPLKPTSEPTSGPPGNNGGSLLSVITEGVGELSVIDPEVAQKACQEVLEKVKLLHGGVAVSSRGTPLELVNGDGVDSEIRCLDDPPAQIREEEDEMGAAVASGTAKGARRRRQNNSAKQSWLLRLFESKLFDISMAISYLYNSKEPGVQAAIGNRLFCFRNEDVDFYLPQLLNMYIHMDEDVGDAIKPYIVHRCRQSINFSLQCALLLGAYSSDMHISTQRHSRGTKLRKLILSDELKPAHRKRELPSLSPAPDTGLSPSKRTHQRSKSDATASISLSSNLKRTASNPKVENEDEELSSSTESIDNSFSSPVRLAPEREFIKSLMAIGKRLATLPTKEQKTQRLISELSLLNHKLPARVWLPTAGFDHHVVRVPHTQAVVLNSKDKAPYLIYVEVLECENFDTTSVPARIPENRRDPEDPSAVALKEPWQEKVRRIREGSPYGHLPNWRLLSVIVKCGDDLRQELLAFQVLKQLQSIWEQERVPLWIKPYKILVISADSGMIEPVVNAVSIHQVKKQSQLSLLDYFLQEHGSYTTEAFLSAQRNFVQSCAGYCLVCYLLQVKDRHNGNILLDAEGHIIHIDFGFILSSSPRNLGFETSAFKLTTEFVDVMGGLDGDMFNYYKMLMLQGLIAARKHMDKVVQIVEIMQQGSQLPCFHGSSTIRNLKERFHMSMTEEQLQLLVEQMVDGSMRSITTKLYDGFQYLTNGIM", "test": "fluorescence cross-correlation spectroscopy (FCCS); on GUV membrane; Atto488-PI4KB attached by tethered ACBD3; mCherry-Rab11-His tethered to the membrane via His tag; proteins approximately 50 nM; both purified", "note": "No constants are given. Whether binding was seen depends on the method and setting."}
{"substance": "mCherry-Rab11-His (membrane tethered)", "values": [{"measurement": "binding", "result": "no binding (tested: approximately 50 nM)"}]}
